The other results are listed elsewhere or left out. Values are raw readings; no control value is given beside them.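 Primary screen: polymyxin B was added at a level permeabilizing Salmonella outer membranes while sparing inner membranes. DMSO wells, both with and without polymyxin B, established maximum growth. Plate-to-plate variation meant each plate was ranked on its own, and the lowest-OD600 compounds were selected as hits.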
Tested on: Salmonella enterica serovar Typhimurium SL1344
Assay: bacterial growth OD600 after 18 h with compound and polymyxin B; higher = more bacterial growth (less inhibition)
Conditions: 50 µM, Mueller-Hinton broth

SMILES: CCN1CCN(C2(C(=O)N(C)CCc3c(C)n[nH]c3C)Cc3ccccc3C2)CC1
- bacterial growth OD600 (polymyxin B 0.75 µg/mL): 0.919

SMILES: Cc1nnc(CCC(=O)NCc2cccnc2Oc2ccc(F)c(F)c2)[nH]1
- bacterial growth OD600 (polymyxin B 0.75 µg/mL): 0.781

SMILES: C=CCN(CC=C)C(=O)C1CC(=O)c2sc(NC(=O)C3CCC3)nc2C1 (configuration not stated)
- bacterial growth OD600 (polymyxin B 0.75 µg/mL): 0.827

SMILES: Cc1cnc(C)c(-c2ccc3c(c2)CC(CNC(=O)CCC2CCCCC2)O3)n1 (configuration not stated)
- bacterial growth OD600 (polymyxin B 0.75 µg/mL): 0.814

SMILES: O=C(Cc1ccc(N2CCC(NCCCc3ccncc3)CC2)cc1)NCCc1cccc(F)c1
- bacterial growth OD600 (polymyxin B 0.75 µg/mL): 0.764

SMILES: Cc1cc(C)n(Cc2cc(C(=O)N(C)C(C)c3cccs3)n[nH]2)n1 (configuration not stated)
- bacterial growth OD600 (polymyxin B 1 µg/mL): 1.02

SMILES: CCOc1ccc2nc(N3CCCC(C(=O)N4CCC(C(=O)N5CCOCC5)CC4)C3)nc(C)c2c1 (configuration not stated)
- bacterial growth OD600 (polymyxin B 0.75 µg/mL): 0.755

SMILES: COc1ccc(C2CCN(Cc3ccoc3)c3ccccc3S2)cc1C (configuration not stated)
- bacterial growth OD600 (polymyxin B 0.75 µg/mL): 0.559

SMILES: O=C(CCn1cccn1)NCc1cccnc1Oc1ccccc1F
- bacterial growth OD600 (polymyxin B 1 µg/mL): 1.02

SMILES: CSCCC(=O)N1CCC(C2(c3cccnc3)NC(=O)N(CCc3cccs3)C2=O)CC1 (configuration not stated)
- bacterial growth OD600 (polymyxin B 0.75 µg/mL): 0.881

SMILES: CCC(NC(=O)CCc1nnc(Cc2cc(OC)ccc2OC)o1)c1ccncc1 (configuration not stated)
- bacterial growth OD600 (polymyxin B 1 µg/mL): 0.884

SMILES: Cc1cccc(C(=O)N2CCCC(Nc3ccc(C(C)C)cc3)C2)n1 (configuration not stated)
- bacterial growth OD600 (polymyxin B 1 µg/mL): 0.666

SMILES: CC(=O)N(Cc1cccnc1)CC1CCN(Cc2ccccc2C)CC1
- bacterial growth OD600 (polymyxin B 1 µg/mL): 1.09

SMILES: CC(C)N1CCC(N2CCC(C(=O)NCc3cccnc3)CC2)CC1
- bacterial growth OD600 (polymyxin B 0.75 µg/mL): 0.774

SMILES: CC(C)(C)CNCC1(O)CCCN(Cc2ccccc2F)C1=O (configuration not stated)
- bacterial growth OD600 (polymyxin B 1 µg/mL): 0.967

SMILES: COC(=O)C1CCN(C(=O)CC2(c3ccc(-c4ccccc4)cc3)CC(=O)N(C)C2=O)CC1 (configuration not stated)
- bacterial growth OD600 (polymyxin B 0.75 µg/mL): 0.72

SMILES: CCc1ccc2nc(C)cc(C(=O)N3CCC(CCC(=O)NC4CC4)CC3)c2c1
- bacterial growth OD600 (polymyxin B 1 µg/mL): 1.02

SMILES: CCc1ccc(CN2Cc3ccccc3OC(C)C2)o1 (configuration not stated)
- bacterial growth OD600 (polymyxin B 0.75 µg/mL): 0.689

SMILES: Cc1cc(C)cc(C(=O)N2CCC(C3(Cc4ccc(F)cc4)NC(=O)N(C4CCOC4)C3=O)CC2)c1 (configuration not stated)
- bacterial growth OD600 (polymyxin B 0.75 µg/mL): 0.671

SMILES: O=C(c1cn(Cc2ccc(Cl)cc2)nn1)N1CCCC(OCc2cccnc2)C1 (configuration not stated)
- bacterial growth OD600 (polymyxin B 1 µg/mL): 0.864

SMILES: O=C(NCc1cccnc1)c1ccc2oc(-c3cccc(F)c3)nc2c1
- bacterial growth OD600 (polymyxin B 1 µg/mL): 0.712

SMILES: CCOc1ccc2nc(N3CCCC(C(=O)N4CCN(C(=O)c5cccs5)CC4)C3)nc(C)c2c1 (configuration not stated)
- bacterial growth OD600 (polymyxin B 0.75 µg/mL): 0.808

SMILES: COc1cc(CC2(CCC(=O)N3CCN(C(=O)c4cccs4)CC3)CCC(=O)N2)ccc1F (configuration not stated)
- bacterial growth OD600 (polymyxin B 0.75 µg/mL): 0.995

SMILES: COC(c1ccc2c(c1)CN(C(=O)C1Cc3ccccc3O1)CCO2)C1CCCCC1 (configuration not stated)
- bacterial growth OD600 (polymyxin B 0.75 µg/mL): 0.002

SMILES: CC1CN(Cc2ccsc2)Cc2cc(Cl)ccc2O1 (configuration not stated)
- bacterial growth OD600 (polymyxin B 0.75 µg/mL): 0.007

SMILES: O=C1CC(NC2CCSCC2)CN1CCCc1ccccc1 (configuration not stated)
- bacterial growth OD600 (polymyxin B 1 µg/mL): 0.877

SMILES: CSCCNC(=O)Cc1c2c(n(Cc3ccccc3)c1C)CCCC2=O
- bacterial growth OD600 (polymyxin B 1 µg/mL): 1.14

SMILES: O=C(CN1CCCCC1)N1CCc2[nH]nc(-c3cccc(F)c3)c2C1
- bacterial growth OD600 (polymyxin B 0.75 µg/mL): 0.764

SMILES: COc1ccc(CCN2C(=O)O[C@@H]3CN(Cc4cnn(C)c4)C[C@@H]32)cc1
- bacterial growth OD600 (polymyxin B 0.75 µg/mL): 0.864

SMILES: OCCC1CN(Cc2cc(F)ccc2F)CCN1C1CCCCC1 (configuration not stated)
- bacterial growth OD600 (polymyxin B 1 µg/mL): 0.921

SMILES: COCC(=O)Nc1cc(C(=O)N2CCCC(c3ccccc3C)C2)cc2nc(-c3cccnc3)n(C)c12 (configuration not stated)
- bacterial growth OD600 (polymyxin B 0.75 µg/mL): 0.763

SMILES: CCCn1c(C)c(CC(=O)NCCc2nccs2)c2c1CC(C)(C)CC2=O
- bacterial growth OD600 (polymyxin B 0.75 µg/mL): 0.985
